Source: article doi:10.1101/2025.06.30.651016
Results are given in words; binding and its absence hold for the method and conditions named. Binding seen in cells or lysates may run through a third protein. Binding can be weak; no strength is given. Sequences can lack the tags named with a protein.

target: T1, ASIC1a C-terminally tagged with GFP followed by 1D4 tag (human) (UniProt P78348); assay: co-IP
T1 sequence: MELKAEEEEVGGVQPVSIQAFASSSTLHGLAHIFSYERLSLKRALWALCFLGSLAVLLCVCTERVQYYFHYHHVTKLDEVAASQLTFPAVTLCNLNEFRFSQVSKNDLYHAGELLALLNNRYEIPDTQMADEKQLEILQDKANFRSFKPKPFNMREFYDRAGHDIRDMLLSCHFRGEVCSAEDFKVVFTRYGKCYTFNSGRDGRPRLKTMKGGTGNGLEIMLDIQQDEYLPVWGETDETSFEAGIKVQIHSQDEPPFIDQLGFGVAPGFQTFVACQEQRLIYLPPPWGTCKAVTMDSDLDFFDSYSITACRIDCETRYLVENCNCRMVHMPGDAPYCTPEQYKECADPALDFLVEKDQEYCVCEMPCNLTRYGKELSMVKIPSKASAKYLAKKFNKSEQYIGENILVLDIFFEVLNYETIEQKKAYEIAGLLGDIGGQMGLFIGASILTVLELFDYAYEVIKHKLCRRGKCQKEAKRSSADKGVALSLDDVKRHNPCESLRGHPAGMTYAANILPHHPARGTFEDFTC

binding, binds:
MCT1-NTD (truncated MCT1 comprised of only the N-terminal domain) (human) (domain or fragment)
MCT1-CTD (truncated MCT1 comprised of only the C-terminal domain) (human) (domain or fragment)
MCT4-NTD (truncated MCT4 comprised of only the N-terminal domain) (human) (domain or fragment)
MCT4-CTD (truncated MCT4 comprised of only the C-terminal domain) (human) (domain or fragment)
